Reference: patent US20220308043A1, “FLUORESCENT PROBES FOR IDENTIFICATION AND QUANTIFICATION OF HEPATIC TRANSPORTERS IN VITRO AND IN VIVO” (Université d'Orléans, priority 2021, published 2022)

Tests used:
bile canaliculi = assay: Fluorescence intensity detection in bile canaliculi (FIG. 3); format: cell-based, human
bile system = assay: Diagnostic tool for the function of the bile system in vivo (injection in the portal vein); conditions: rat
[1] = portal vein injection, 30 seconds and 2 minutes after injection, FIG. 10

Compound	fluorescence intensity located in bile canaliculi (bile canaliculi)	fluorescence of the biliary network of the liver and the bile duct (bile system; between 0.1 mg and 1 mg into the portal vein, after 30 seconds and 2 minutes, UV light)	fluorescence of the bile duct (bile system; [1])	fluorescence of the liver (bile system; [1])
COC(=O)[C@H](CCCCNc1ccc([N+](=O)[O-])c2nonc12)NC(=O)CC[C@@H](C)C1CCC2C3C(CC[C@@]21C)[C@@]1(C)CC[C@@H](O)CC1C[C@@H]3O (stereo partly drawn) [Compound 15, Methyl-N2-((4R)-4-((3R,7S,10S,13R)-3,7-dihydroxy-10,13-dimethylhexadecahydro-1H-cyclopenta[a]phenanthren-17-yl)pentanoyl)-N6-(7-nitrobenzo[c][1,2,5]oxadiazol-4-yl)-L-lysinate]	weaker fluorescence signal			
COC(=O)C(CCCCNC(=O)CCc1ccc2n1[B-](F)(F)[N+]1=C(C)C=C(C)C1=C2)NC(=O)CCC(C)C1CCC2C3C(O)CC4CC(O)CCC4(C)C3CCC12C [Compound 54, Methyl N6-(3-(5,5-difluoro-7,9-dimethyl-5H-dipyrrolo[1,2-c:2′,1′-f][1,3,2]diazaborinin-3-yl)propanoyl)-N2-((4R)-4-((3R,7S,10S,13R,17R)-3,7-dihydroxy-10,13-dimethylhexadecahydro-1H-cyclopenta[a]phenanthren-17-yl)pentanoyl)-L-lysinate]	very strong fluorescence intensity			
COC(=O)CNC(=O)C(CCCCNC(=O)CCc1ccc2n1[B-](F)(F)[N+]1=C(C)C=C(C)C1=C2)NC(=O)CCC(C)C1CCC2C3C(O)CC4CC(O)CCC4(C)C3CCC12C [Compound 55, Methyl-N6-(3-(5,5-difluoro-7,9-dimethyl-5H-dipyrrolo[1,2-c:2′,1′-f][1,3,2]diazaborinin-3-yl)propanoyl)-N2-((4R)-4-((3R,7S,10S,13R,17R)-3,7-dihydroxy-10,13-dimethylhexadecahydro-1H-cyclopenta[a]phenanthren-17-yl)pentanoyl)-L-lysylglycinate]	very strong fluorescence intensity	fluoresces	significant fluorescence	slightly fluorescent
Tauro-nor-THCA-24-DBD [reference compound]	much weaker fluorescence signal			
